Some of the results follow.
Compound: CC1Cc2ccccc2N1C(=O)C1CCCN(C1)C(=O)CCl (mixture of isomers) [TRIM25 ligand 11 (diastereomer mixture)]
Test: probe-labelled cysteine peptide fold change vs DMSO (competition) (log2 fold change); higher = less target engagement (more negative = stronger competition)
Settings: THP-1, incubation time: 4 h
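Also: competitive chemoproteomic profiling in live THP-1 cells with an iodoacetamide desthiobiotin (IA-DTB) probe, comparing probe-labelled peptide intensities in compound-treated cells against DMSO-treated controls.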

Protein sequences, listed by entry. Tags and fused reporters are not part of them. Lines headed by an entry give the natural chain unless they say otherwise; changes in a name come on top.
UniProt P63010: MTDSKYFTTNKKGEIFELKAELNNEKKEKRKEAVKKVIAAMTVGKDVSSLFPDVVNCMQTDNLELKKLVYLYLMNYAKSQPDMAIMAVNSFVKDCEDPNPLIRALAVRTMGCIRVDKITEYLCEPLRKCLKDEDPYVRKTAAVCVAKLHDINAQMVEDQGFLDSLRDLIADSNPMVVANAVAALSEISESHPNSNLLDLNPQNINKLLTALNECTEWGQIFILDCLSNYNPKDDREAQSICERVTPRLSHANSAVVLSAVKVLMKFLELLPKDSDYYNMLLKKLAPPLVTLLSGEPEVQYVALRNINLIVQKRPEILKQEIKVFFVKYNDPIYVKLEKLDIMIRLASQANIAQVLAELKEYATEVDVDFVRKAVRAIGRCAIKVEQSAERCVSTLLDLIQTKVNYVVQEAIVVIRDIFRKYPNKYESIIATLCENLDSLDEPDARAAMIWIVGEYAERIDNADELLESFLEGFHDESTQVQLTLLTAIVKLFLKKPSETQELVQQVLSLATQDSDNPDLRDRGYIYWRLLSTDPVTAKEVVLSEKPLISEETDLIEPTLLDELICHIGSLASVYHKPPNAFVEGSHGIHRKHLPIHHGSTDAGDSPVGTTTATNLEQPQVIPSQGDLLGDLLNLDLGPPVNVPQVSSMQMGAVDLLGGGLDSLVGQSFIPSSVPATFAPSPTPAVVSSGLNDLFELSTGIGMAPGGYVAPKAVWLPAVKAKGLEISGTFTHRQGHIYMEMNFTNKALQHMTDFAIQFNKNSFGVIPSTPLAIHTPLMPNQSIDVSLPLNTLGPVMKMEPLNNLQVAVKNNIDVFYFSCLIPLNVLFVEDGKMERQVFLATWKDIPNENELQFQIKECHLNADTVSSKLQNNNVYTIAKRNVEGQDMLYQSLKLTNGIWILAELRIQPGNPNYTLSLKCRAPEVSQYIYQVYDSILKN
UniProt P13798: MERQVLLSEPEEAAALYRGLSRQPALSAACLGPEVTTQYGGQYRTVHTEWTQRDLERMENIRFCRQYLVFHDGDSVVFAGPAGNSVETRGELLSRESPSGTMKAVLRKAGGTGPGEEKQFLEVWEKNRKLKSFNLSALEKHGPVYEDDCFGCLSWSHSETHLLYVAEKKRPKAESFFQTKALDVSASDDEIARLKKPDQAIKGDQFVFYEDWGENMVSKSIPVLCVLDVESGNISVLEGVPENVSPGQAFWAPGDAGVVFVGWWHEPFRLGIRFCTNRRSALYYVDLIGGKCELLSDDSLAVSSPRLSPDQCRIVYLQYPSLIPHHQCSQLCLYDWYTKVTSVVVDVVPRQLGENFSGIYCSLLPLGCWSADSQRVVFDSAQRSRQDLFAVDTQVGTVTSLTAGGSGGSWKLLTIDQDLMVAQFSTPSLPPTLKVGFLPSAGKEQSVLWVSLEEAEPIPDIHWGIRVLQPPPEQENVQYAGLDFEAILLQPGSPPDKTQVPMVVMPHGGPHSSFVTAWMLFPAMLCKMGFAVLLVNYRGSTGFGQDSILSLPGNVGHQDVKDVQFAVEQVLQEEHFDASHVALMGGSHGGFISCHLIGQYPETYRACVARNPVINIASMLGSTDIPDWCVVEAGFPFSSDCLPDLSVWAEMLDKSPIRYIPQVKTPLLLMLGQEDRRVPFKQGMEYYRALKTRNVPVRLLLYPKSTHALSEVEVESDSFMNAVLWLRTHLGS
UniProt Q06481, whole entry, looked up: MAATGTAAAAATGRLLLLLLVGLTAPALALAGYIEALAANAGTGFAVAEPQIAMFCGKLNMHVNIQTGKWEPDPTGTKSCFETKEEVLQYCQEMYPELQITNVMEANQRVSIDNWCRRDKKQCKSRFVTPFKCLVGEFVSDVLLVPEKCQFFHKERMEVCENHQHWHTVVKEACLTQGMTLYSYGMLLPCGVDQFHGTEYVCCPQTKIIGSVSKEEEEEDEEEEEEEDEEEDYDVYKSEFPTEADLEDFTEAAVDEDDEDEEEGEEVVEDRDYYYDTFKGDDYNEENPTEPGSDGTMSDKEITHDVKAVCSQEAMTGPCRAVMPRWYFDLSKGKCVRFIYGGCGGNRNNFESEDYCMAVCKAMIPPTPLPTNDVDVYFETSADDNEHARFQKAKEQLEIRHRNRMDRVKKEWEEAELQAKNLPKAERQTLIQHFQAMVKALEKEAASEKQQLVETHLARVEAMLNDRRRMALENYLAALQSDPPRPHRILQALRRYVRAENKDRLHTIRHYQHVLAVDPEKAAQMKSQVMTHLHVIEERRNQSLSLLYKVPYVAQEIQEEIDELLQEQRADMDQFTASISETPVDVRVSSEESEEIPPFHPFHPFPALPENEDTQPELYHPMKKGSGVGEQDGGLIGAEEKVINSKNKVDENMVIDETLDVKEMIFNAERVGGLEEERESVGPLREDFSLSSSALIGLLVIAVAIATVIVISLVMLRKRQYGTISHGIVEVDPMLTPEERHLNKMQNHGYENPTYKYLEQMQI
UniProt P15144: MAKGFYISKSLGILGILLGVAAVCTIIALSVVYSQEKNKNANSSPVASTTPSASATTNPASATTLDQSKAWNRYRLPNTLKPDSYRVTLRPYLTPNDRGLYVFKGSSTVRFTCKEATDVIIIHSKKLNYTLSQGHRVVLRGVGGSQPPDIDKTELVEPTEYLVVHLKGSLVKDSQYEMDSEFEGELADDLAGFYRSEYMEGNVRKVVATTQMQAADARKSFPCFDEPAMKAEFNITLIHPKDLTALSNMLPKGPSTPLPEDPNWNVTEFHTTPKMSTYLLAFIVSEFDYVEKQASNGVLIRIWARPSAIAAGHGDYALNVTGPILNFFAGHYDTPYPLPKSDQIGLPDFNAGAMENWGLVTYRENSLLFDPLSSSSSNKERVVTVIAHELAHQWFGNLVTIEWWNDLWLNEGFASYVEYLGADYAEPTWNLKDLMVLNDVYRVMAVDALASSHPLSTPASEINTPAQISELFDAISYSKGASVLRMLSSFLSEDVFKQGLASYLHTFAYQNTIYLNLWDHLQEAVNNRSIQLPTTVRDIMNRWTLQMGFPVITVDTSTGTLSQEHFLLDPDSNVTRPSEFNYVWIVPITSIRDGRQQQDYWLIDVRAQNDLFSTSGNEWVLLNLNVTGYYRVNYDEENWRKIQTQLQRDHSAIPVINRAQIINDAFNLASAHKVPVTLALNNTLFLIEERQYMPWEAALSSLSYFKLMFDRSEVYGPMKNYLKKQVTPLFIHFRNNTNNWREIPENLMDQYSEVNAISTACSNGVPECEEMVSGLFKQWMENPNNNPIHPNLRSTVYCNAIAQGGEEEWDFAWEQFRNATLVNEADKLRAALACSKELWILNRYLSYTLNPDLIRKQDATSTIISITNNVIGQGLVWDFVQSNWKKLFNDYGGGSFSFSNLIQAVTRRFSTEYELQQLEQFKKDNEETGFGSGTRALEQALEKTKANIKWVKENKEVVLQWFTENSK
UniProt P53677: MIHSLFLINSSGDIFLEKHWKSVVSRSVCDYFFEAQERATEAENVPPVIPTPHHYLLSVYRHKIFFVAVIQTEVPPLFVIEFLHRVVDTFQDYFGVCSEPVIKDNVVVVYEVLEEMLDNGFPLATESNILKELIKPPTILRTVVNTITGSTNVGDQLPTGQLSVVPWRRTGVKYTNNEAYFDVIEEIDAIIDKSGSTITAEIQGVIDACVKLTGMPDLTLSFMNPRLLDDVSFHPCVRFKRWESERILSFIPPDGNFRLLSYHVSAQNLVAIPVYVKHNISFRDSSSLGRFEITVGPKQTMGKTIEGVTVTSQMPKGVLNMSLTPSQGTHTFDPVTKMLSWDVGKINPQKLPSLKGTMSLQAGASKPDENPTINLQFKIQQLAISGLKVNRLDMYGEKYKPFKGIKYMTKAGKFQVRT
UniProt O95782: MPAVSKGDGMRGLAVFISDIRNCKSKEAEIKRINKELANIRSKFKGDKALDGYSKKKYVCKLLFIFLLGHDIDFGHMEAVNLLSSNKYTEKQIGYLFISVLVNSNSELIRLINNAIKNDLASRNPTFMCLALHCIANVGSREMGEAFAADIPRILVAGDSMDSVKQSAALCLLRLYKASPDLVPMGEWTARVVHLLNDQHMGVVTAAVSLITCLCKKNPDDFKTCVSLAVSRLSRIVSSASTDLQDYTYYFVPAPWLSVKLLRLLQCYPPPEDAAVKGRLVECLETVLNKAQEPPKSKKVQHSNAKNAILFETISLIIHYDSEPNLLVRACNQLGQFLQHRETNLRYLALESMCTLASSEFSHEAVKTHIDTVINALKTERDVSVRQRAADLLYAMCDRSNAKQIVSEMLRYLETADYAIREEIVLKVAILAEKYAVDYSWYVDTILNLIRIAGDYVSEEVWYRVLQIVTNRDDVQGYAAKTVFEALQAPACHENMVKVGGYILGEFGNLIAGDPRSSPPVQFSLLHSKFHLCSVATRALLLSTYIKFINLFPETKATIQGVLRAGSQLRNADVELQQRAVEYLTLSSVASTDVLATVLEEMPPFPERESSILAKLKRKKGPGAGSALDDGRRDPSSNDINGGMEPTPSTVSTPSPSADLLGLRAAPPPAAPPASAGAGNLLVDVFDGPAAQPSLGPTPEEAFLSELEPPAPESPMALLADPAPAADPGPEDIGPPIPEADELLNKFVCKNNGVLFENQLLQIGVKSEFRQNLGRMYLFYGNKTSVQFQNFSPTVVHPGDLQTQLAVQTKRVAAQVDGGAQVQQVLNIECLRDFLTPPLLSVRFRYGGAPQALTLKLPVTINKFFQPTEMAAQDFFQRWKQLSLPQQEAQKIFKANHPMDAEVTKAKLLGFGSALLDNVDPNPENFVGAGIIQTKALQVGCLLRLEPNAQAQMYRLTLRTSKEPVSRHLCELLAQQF
UniProt P19801: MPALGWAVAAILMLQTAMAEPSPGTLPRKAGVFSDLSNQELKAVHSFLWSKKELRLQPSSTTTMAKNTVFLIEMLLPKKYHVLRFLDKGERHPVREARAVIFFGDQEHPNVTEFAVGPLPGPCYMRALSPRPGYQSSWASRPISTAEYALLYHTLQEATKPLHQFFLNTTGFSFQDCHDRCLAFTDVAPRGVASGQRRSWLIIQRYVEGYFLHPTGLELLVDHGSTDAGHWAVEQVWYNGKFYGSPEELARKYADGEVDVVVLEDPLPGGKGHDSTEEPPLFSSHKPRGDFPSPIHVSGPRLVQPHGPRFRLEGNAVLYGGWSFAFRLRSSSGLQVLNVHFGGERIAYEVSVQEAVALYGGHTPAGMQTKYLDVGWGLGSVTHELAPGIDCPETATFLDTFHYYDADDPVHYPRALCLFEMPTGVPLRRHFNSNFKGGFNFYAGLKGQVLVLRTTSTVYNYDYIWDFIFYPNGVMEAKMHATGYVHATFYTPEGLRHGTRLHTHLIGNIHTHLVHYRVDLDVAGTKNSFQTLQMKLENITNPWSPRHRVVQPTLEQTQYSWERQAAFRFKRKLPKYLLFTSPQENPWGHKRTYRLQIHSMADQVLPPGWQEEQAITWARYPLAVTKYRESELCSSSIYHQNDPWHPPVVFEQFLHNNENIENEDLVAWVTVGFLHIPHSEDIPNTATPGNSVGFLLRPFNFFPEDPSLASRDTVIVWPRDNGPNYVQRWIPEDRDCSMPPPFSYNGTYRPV
UniProt Q8N8A2: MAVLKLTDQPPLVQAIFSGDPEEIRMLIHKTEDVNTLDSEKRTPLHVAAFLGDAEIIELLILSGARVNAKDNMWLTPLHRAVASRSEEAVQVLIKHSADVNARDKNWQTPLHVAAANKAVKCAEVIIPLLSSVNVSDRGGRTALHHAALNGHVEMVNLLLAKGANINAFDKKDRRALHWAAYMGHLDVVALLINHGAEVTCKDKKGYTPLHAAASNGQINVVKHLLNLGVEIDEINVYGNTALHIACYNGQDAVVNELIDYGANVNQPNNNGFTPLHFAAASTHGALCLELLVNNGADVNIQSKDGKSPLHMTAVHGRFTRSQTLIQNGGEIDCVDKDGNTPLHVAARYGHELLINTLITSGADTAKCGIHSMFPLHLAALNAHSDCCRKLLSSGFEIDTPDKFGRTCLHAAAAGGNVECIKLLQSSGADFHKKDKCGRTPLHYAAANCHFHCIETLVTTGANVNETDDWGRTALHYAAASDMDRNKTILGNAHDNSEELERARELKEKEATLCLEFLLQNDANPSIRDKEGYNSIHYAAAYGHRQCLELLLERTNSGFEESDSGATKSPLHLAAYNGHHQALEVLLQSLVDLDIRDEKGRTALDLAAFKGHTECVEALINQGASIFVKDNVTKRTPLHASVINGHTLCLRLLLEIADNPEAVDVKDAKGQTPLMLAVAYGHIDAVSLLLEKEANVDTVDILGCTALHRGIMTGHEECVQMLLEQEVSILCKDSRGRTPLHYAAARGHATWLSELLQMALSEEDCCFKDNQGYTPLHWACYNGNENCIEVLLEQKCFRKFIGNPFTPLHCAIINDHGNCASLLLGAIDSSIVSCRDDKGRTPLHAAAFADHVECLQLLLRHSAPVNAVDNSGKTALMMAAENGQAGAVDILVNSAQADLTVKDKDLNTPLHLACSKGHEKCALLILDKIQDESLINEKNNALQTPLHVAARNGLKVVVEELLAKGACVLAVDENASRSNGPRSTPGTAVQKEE

| Target | probe-labelled cysteine peptide fold change (10 µM) | probe-labelled cysteine peptide fold change (50 µM) |
| --- | --- | --- |
| ANO6_Q4KMQ2_261_QSEDPSCPNER (UniProt Q4KMQ2) | -0.0911 | -0.0255 |
| AP1G1_O43747_70_LLYMHMLGYPAHFGQLECLK (UniProt O43747) | -0.0739 | 0.0302 |
| ANKHD1_Q8IWZ3_1716_GGCNITAIQDVTGAHIDVDK (UniProt Q8IWZ3) | 0.0838 | 0.0879 |
| AP2B1_P63010_241_EAQSICER (UniProt P63010) | -0.0689 | -0.153 |
| AP2B1_P63010_95_DCEDPNPLIR (UniProt P63010) | 0.00497 | 0.155 |
| ANXA1_P04083_263_CLTAIVK (UniProt P04083) | -0.0305 | -0.0899 |
| APOBEC3C_Q9NRW3_70+76_CFLSWFCDDILSPNTK (UniProt Q9NRW3) | 0.0461 | 0.016 |
| APEH_P13798_149+152_HGPVYEDDCFGCLSWSHSETHLLYVAEK (UniProt P13798) | -0.00181 | -0.172 |
| ANKRD54_Q6NXT1_265_LDDLCTR (UniProt Q6NXT1) | -0.0938 | -0.167 |
| APLP2_Q06481_80_SCFETK (UniProt Q06481) | 0.0295 | 0.0911 |
| ANKLE2_Q86XL3_454_TPEDVICER (UniProt Q86XL3) | -0.0494 | -0.0269 |
| ANPEP_P15144_834_AALACSK (UniProt P15144) | 0.0828 | 0.356 |
| AP3D1_O14617_39_YISQCIDEIKQELK (UniProt O14617) | -0.00769 | 0.0314 |
| APAF1_O14727_675_AHEDEVLCCAFSTDDRFIATCSVDK (UniProt O14727) | -0.0457 | 0.0759 |
| ANKLE1_Q8NAG6_29_CGADPNLVLEDGAAAVHLAAGAR (UniProt Q8NAG6) | 0.0123 | 0.1 |
| AP3D1_O14617_1133_CSDSTLLSNLLEEMK (UniProt O14617) | 0.0919 | 0.0779 |
| ANKMY2_Q8IV38_390_LDVNSNCVNEEQPEAEVGISQK (UniProt Q8IV38) | -0.0157 | -0.183 |
| ANTXR1_Q9H6X2_257_VLCSFK (UniProt Q9H6X2) | 0.067 | 0.257 |
| ANKRD52_Q8NB46_733+749_GAVTGCEDCLAALLDHDAFVLCR (UniProt Q8NB46) | 0.0114 | -0.356 |
| AP1G2_O75843_354_HRPTVVECLR (UniProt O75843) | -0.0584 | -0.0218 |
| ANKHD1_Q8IWZ3_615_AGHLCTVQFLISK (UniProt Q8IWZ3) | -0.0157 | -0.126 |

| Target | probe-labelled cysteine peptide fold change (10 µM) | probe-labelled cysteine peptide fold change (50 µM) |
| --- | --- | --- |
| APAF1_O14727_749_NTMFGHTNSVNHCR (UniProt O14727) | 0.177 | -0.185 |
| API5_Q9BZZ5_345_LQFSYVECLLYSFHQLGR (UniProt Q9BZZ5) | 0.242 | 0.0127 |
| ANKHD1_Q8IWZ3-6_2579_VPAGVQELTHCPDTPLLPPSDSR (UniProt Q8IWZ3) | -0.114 | -0.49 |
| AP3M2_P53677_236_LLDDVSFHPCVR (UniProt P53677) | 0.0141 | -0.162 |
| ANXA7_P20073_363_LGTDESCFNMILATR (UniProt P20073) | 0.041 | 0.0488 |
| AP2A1_O95782_129_NPTFMCLALHCIANVGSR (UniProt O95782) | 0.0108 | 0.26 |
| AP3D1_O14617_1103_VDSCASMYSR (UniProt O14617) | 0.0668 | 0.258 |
| AP2A2_O94973_353_YLALESMCTLASSEFSHEAVK (UniProt O94973) | 0.0765 | 0.0277 |
| ANKS1A_Q92625_75_GPNVNCVDSTGYTPLHHAALNGHK (UniProt Q92625) | -0.0158 | -0.00182 |
| AOC1_P19801_181_CLAFTDVAPR (UniProt P19801) | -0.0221 | 0.017 |
| APC_P25054_661_ENNCLQTLLQHLK (UniProt P25054) | 0.0836 | 0.0643 |
| AP2M1_Q96CW1_246_QSIAIDDCTFHQCVR (UniProt Q96CW1) | -0.00235 | -0.0137 |
| ANKRD17_O75179_442_TDEMHTALMEACMDGHVEVAR (UniProt O75179) | -0.00146 | 0.00349 |
| ANLN_Q9NQW6_309_SCEGQNPELLPK (UniProt Q9NQW6) | -0.018 | -0.275 |
| APEH_P13798_368_QLGENFSGIYCSLLPLGCWSADSQR (UniProt P13798) | -0.459 | -0.216 |
| ANKRD44_Q8N8A2_368+388_CGIHSMFPLHLAALNAHSDCCR (UniProt Q8N8A2) | -0.463 | -0.104 |
| ANXA11_P50995_384_FNAVLCSR (UniProt P50995) | -0.0174 | -0.0325 |
| AP3D1_O14617_935_MTCDIR (UniProt O14617) | -0.0922 | 0.0455 |
| APEH_P13798_30_QPALSAACLGPEVTTQYGGQYR (UniProt P13798) | -0.0105 | 0.35 |
| ANKRD17_O75179_1336_FCELLIGR (UniProt O75179) | 0.0355 | 0.207 |
| ANKFY1_Q9P2R3_499_WGETPLHTACR (UniProt Q9P2R3) | 0.189 | 0.18 |

| Target | probe-labelled cysteine peptide fold change (10 µM) | probe-labelled cysteine peptide fold change (50 µM) |
| --- | --- | --- |
| AP3B1_O00203_507_ASILWLIGENCER (UniProt O00203) | 0.0898 | 0.0982 |
| APEX1_P27695_93_GLDWVKEEAPDILCLQETK (UniProt P27695) | -0.447 | -0.455 |
| ANXA5_P08758_316_ALLLLCGEDD (UniProt P08758) | 0.202 | 0.182 |
| APEX1_P27695_208_KPLVLCGDLNVAHEEIDLRNPK (UniProt P27695) | -0.279 | -0.0808 |
| ANLN_Q9NQW6_1037_INLANCTSR (UniProt Q9NQW6) | 0.0908 | 0.0492 |
| ANKHD1_Q8IWZ3_213_SLAEACSDGDVNAVR (UniProt Q8IWZ3) | 0.203 | 0.151 |
| ANKRD27_Q96NW4_795_CLLDSNAKPNKK (UniProt Q96NW4) | -0.201 | -0.0885 |
| AP2M1_Q96CW1_337_IPTPLNTSGVQVICMK (UniProt Q96CW1) | 0.0113 | 0.0203 |
| APAF1_O14727_8_NCLLQHR (UniProt O14727) | -0.0505 | -0.0514 |
| AP2A2_O94973_282_LTECLETILNK (UniProt O94973) | -0.158 | -0.0625 |
| AP3S1_Q92572_47_RDENVCNFLEGGLLIGGSDNK (UniProt Q92572) | 0.111 | 0.0336 |
| ANKRD44_Q8N8A2_615_GHTECVEALINQGASIFVK (UniProt Q8N8A2) | -0.0146 | 0.0676 |
| ANXA7_P20073_327_LLVSMCQGNRDENQSINHQMAQEDAQR (UniProt P20073) | -0.148 | -0.299 |
| ANKRD16_Q6P6B7_32+43_EELQAAGGCPGPAGDTLLHCAAR (UniProt Q6P6B7) | -0.232 | -0.161 |
| AP1M1_Q9BXS5_241_FHQCVR (UniProt Q9BXS5) | 0.375 | 0.482 |
| ANKRD44_Q8N8A2_854_TPLHAAAFADHVECLQLLLR (UniProt Q8N8A2) | 0.0437 | 0.148 |
| ANKRD49_Q8WVL7_149_AAYSGHLDIVQELIAQGADVHAVTVDGWTPLHSACK (UniProt Q8WVL7) | -0.25 | 0.131 |
| ANXA6_P08133_59_QRQEVCQSYK (UniProt P08133) | 0.0235 | 0.014 |
| ANO6_Q4KMQ2_426_CTHVVINEITQEEERIPFTAWGK (UniProt Q4KMQ2) | -0.13 | -0.0867 |
| AP2A1_O95782_215_VVHLLNDQHMGVVTAAVSLITCLCK (UniProt O95782) | -0.114 | 0.0617 |
| AP2A2_O94973_134_NPTFMGLALHCIASVGSR (UniProt O94973) | 0.127 | 0.202 |

| Target | probe-labelled cysteine peptide fold change (10 µM) | probe-labelled cysteine peptide fold change (50 µM) |
| --- | --- | --- |
| ANP32A_P39687_87_CPNLTHLNLSGNK (UniProt P39687) | -0.175 | -0.227 |
| ANKRD17_O75179_409_ESALTLACYK (UniProt O75179) | 0.13 | 0.193 |
| ANKRD27_Q96NW4_112_EESFSILCIAHPLEK (UniProt Q96NW4) | 0.234 | 0.136 |
| ANKRD44_Q8N8A2_921_CALLILDK (UniProt Q8N8A2) | -0.157 | -0.0466 |
| AP3D1_O14617_60_ANAVCK (UniProt O14617) | 0.135 | 0.269 |
| APEX2_Q9UBZ4_45_ILDELDADIVCLQETK (UniProt Q9UBZ4) | -0.0134 | -0.0373 |
| ANKFY1_Q9P2R3_712+716_HGCDATCWGPGPGGCLQTLLHR (UniProt Q9P2R3) | -0.131 | -0.202 |
| APMAP_Q9HDC9_149_DDEPVCGR (UniProt Q9HDC9) | 0.107 | 0.138 |
| ANKLE2_Q86XL3_176_TCSVPPSDTDTYR (UniProt Q86XL3) | 0.0474 | -0.286 |
| AOC1_P19801_417_ALCLFEMPTGVPLRR (UniProt P19801) | -0.159 | 0.0773 |
| ANKRD17_O75179_1418_EVNQFPSDSECMR (UniProt O75179) | 0.0644 | 0.0601 |
| APLP2_Q06481_133_CLVGEFVSDVLLVPEK (UniProt Q06481) | 0.0646 | 8.35e-05 |
| AP2B1_P63010_144_TAAVCVAK (UniProt P63010) | -0.0906 | -0.016 |
| AP1G2_O75843_401_ADCASGILLAAER (UniProt O75843) | 0.0532 | 0.169 |
| AP2A2_O94973_330_ACNQLGQFLQHR (UniProt O94973) | -0.0574 | 0.0315 |
| ANLN_Q9NQW6_469_QETHCQSTPLK (UniProt Q9NQW6) | -0.086 | -0.142 |
| AP3M1_Q9Y2T2_10_MIHSLFLINCSGDIFLEK (UniProt Q9Y2T2) | 0.115 | 0.0501 |
| ANKRD11_Q6UB99_1339_ESACLPEK (UniProt Q6UB99) | 0.0722 | -0.048 |

Rewritten in CSV form: part of the list above.
Target,probe-labelled cysteine peptide fold change (10 µM),probe-labelled cysteine peptide fold change (50 µM)
APOBEC3C_Q9NRW3_70+76_CFLSWFCDDILSPNTK (UniProt Q9NRW3),0.0461,0.016
ANPEP_P15144_834_AALACSK (UniProt P15144),0.0828,0.356
ANKLE1_Q8NAG6_29_CGADPNLVLEDGAAAVHLAAGAR (UniProt Q8NAG6),0.0123,0.1
AP3M2_P53677_236_LLDDVSFHPCVR (UniProt P53677),0.0141,-0.162
ANXA7_P20073_363_LGTDESCFNMILATR (UniProt P20073),0.041,0.0488
ANKRD44_Q8N8A2_854_TPLHAAAFADHVECLQLLLR (UniProt Q8N8A2),0.0437,0.148
ANKRD27_Q96NW4_112_EESFSILCIAHPLEK (UniProt Q96NW4),0.234,0.136

— the supplement of paper PMC12067093, “Discovery and optimisation of a covalent ligand for TRIM25 and its application to targeted protein ubiquitination” (Chemical Science, 2025)
